From paper PMC6098020
These are yes or no findings as the source states them, for the method shown. Binding seen in cells or lysates may run through a third protein. Here binding means that the protein was enriched with, or labelled near, the bait; the list need not be complete.

The chains behind the UniProt entries cited, without tags or fusion partners.
UniProt Q3SXY8: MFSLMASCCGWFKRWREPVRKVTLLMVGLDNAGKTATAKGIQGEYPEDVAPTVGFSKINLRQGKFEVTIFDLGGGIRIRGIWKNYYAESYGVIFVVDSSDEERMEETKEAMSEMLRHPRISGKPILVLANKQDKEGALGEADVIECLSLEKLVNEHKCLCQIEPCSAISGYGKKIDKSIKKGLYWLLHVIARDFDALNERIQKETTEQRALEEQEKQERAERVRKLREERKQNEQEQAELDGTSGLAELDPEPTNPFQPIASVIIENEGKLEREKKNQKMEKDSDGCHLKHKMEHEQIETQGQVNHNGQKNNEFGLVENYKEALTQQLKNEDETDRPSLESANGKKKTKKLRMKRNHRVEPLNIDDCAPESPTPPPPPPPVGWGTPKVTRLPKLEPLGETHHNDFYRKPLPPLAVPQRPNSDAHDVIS
UniProt P36405: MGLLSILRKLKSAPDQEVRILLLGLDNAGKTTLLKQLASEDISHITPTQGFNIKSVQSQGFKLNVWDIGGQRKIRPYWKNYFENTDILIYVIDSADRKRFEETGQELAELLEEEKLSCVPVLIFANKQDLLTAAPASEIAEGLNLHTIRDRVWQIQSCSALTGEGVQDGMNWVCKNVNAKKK
UniProt P35579: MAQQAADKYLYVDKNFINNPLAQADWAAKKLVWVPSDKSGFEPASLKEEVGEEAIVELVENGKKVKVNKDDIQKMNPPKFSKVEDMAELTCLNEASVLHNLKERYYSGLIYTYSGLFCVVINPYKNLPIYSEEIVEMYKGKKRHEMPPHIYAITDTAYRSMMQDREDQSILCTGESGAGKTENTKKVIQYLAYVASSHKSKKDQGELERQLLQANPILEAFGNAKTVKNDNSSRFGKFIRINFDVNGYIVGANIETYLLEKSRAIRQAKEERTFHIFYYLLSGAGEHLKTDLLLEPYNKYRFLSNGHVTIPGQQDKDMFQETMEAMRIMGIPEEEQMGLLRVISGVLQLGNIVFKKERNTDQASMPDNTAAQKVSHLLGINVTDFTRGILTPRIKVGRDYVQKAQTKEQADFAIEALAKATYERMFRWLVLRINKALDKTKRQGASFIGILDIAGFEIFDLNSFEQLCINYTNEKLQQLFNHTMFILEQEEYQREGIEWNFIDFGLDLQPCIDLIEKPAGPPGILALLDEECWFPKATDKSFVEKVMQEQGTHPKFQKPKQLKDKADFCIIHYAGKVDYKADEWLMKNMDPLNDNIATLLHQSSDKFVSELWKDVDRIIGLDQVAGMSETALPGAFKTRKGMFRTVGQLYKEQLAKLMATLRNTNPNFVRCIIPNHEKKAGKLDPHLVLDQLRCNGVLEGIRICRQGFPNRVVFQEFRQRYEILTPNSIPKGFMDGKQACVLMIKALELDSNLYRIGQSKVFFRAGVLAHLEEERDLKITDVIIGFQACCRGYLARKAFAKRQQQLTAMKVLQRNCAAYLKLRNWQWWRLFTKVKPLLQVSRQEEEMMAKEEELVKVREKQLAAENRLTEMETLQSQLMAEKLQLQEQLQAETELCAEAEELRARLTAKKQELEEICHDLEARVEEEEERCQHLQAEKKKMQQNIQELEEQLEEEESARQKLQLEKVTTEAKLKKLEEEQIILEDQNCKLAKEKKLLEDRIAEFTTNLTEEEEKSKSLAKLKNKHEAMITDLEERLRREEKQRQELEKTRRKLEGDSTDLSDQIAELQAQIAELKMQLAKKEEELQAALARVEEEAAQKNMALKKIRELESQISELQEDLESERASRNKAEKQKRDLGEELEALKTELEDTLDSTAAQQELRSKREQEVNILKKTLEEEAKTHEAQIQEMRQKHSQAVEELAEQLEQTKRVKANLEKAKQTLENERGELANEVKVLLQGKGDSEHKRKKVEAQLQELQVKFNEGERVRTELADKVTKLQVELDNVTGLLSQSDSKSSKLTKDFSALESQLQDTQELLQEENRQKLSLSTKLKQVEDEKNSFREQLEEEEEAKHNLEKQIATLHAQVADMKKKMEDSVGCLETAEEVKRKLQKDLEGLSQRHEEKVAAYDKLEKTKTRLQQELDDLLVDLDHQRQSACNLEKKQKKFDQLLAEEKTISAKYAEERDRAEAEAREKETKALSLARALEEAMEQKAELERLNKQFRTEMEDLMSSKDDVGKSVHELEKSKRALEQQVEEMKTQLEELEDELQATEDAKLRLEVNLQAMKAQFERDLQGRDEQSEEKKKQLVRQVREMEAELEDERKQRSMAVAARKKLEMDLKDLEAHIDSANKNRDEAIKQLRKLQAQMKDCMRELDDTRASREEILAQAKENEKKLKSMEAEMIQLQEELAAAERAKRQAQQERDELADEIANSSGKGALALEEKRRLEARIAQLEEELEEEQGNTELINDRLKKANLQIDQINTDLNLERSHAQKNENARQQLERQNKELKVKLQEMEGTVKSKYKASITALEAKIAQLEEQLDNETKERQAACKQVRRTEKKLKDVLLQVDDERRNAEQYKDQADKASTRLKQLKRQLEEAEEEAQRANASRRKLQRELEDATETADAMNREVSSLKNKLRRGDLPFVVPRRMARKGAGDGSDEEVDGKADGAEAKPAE
UniProt P63279: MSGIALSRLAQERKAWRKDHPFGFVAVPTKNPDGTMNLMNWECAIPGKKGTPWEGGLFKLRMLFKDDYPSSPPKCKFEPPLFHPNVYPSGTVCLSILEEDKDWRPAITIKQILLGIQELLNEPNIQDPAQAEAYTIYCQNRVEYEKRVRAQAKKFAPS

B1: RAB11FIP5 (protein, UniProt Q9BXF6 1-653)
chain: MALVRGAEPAAGPSRWLPTHVQVTVLRARGLRGKSSGAGSTSDAYTVIQVGREKYSTSVVEKTHGCPEWREECSFELPPGALDGLLRAQEADAGPAPWAASSAAACELVLTTMHRSLIGVDKFLGQATVALDEVFGAGRAQHTQWYKLHSKPGKKEKERGEIEVTIQFTRNNLSASMFDLSMKDKPRSPFSKIRDKMKGKKKYDLESASAILPSSAIEDPDLGSLGKMGKAKGFFLRNKLRKSSLTQSNTSLGSDSTLSSASGSLAYQGPGAELLTRSPSRSSWLSTEGGRDSAQSPKLFTHKRTYSDEANQMRVAPPRALLDLQGHLDAASRSSLCVNGSHIYNEEPQGPVRHRSSISGSLPSSGSLQAVSSRFSEEGPRSTDDTWPRGSRSNSSSEAVLGQEELSAQAKVLAPGASHPGEEEGARLPEGKPVQVATPIVASSEAVAEKEGARKEERKPRMGLFHHHHQGLSRSELGRRSSLGEKGGPILGASPHHSSSGEEKAKSSWFGLREAKDPTQKPSPHPVKPLSAAPVEGSPDRKQSRSSLSIALSSGLEKLKTVTSGSIQPVTQAPQAGQMVDTKRLKDSAVLDQSAKYYHLTHDELISLLLQRERELSQRDEHVQELESYIDRLLVRIMETSPTLLQIPPGPPK
B2: TULP3 (protein, UniProt O75386 1-442)
chain: MEASRCRLSPSGDSVFHEEMMKMRQAKLDYQRLLLEKRQRKKRLEPFMVQPNPEARLRRAKPRASDEQTPLVNCHTPHSNVILHGIDGPAAVLKPDEVHAPSVSSSVVEEDAENTVDTASKPGLQERLQKHDISESVNFDEETDGISQSACLERPNSASSQNSTDTGTSGSATAAQPADNLLGDIDDLEDFVYSPAPQGVTVRCRIIRDKRGMDRGLFPTYYMYLEKEENQKIFLLAARKRKKSKTANYLISIDPVDLSREGESYVGKLRSNLMGTKFTVYDRGICPMKGRGLVGAAHTRQELAAISYETNVLGFKGPRKMSVIIPGMTLNHKQIPYQPQNNHDSLLSRWQNRTMENLVELHNKAPVWNSDTQSYVLNFRGRVTQASVKNFQIVHKNDPDYIVMQFGRVADDVFTLDYNYPLCAVQAFGIGLSSFDSKLACE
B3: IFT74 (protein, UniProt Q96LB3 1-600)
chain: MASNHKSSAARPVSRGGVGLTGRPPSGIRPLSGNIRVATAMPPGTARPGSRGCPIGTGGVLSSQIKVAHRPVTQQGLTGMKTGTKGPQRQILDKSYYLGLLRSKISELTTEVNKLQKGIEMYNQENSVYLSYEKRAETLAVEIKELQGQLADYNMLVDKLNTNTEMEEVMNDYNMLKAQNDRETQSLDVIFTERQAKEKQIRSVEEEIEQEKQATDDIIKNMSFENQVKYLEMKTTNEKLLQELDTLQQQLDSQNMKKESLEAEIAHSQVKQEAVLLHEKLYELESHRDQMIAEDKSIGSPMEEREKLLKQIKDDNQEIASMERQLTDTKEKINQFIEEIRQLDMDLEEHQGEMNQKYKELKKREEHMDTFIETFEETKNQELKRKAQIEANIVALLEHCSRNINRIEQISSITNQELKMMQDDLNFKSTEVQKSQSTAQNLTSDIQRLQLDLQKMELLESKMTEEQHSLKSKIKQMTTDLEIYNDLPALKSSGEEKIKKLHQERMILSTHRNAFKKIMEKQNIEYEALKTQLQENETHSQLTNLERKWQHLEQNNFAMKEFIATKSQESDYQPIKKNVTKQIAEYNKTIVDALHSTSGN

These molecules were tested against HA-BirA-tagged ARL13B (human) (UniProt Q3SXY8) (assay: proximity labelling; Bio-ID: HA-BirA-ARL13B stable RCTE cells against HA-BirA cells, serum-free medium with biotin for 24 h, streptavidin beads, gel bands to mass spectrometry).
In the case of B1, the binding is reported as “binds”.
For B2, the binding was “binds”.
B3 was tested, and the binding was “binds”.

Molecular target: HA-BirA-tagged ARL13B (human) (UniProt Q3SXY8)
Assay: as above
Remark: another data set of the same source
With ARL3 (from UniProt P36405 1-182) the binding was “binds”.
In the case of Myh9 (from UniProt P35579 1-1960), the binding is reported as “binds”.
In the case of UBC9 (from UniProt P63279 1-158), the binding is reported as “binds”.
